PubChem BioAssay AID1259308 – NCATS – 2017

Test: 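Genes whose loss raises luciferase production in HEK293 cells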 (primary screen)
Cells: human HEK293 embryonic kidney cells stably expressing firefly luciferase (HEK-CMV-Luc2-Hygro)
Reagent: single siRNA against human genes, 0.8 pmol siRNA per well
Timing: 72 h
Detection: 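Luciferase light (ONE-Glo) measured on one replicate plate set and viability (CellTiter-Glo) on the other, scaled to a negative control siRNA, with robust z-scores and luciferase per cell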
Reading the numbers: total luciferase, z-score and total luciferase, % of control: higher = more reporter protein produced; luciferase per cell, z-score: higher = more reporter output per viable cell
Call rule: 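An siRNA counts as active if its total luciferase robust z-score exceeds 3; genes with two or more such siRNAs out of three were retested with fresh siRNAs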
Calls: active = raised luciferase; inactive = no rise
Here is a random part of about 59,000 reagents tested. In the full data, about 1,510 (2.6%) are marked active. 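Calls use total luciferase alone and ignore viability, so some active siRNAs may act by altering cell number.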 Reagents against one gene are numbered here. Not all columns of the deposit are shown.

gene,reagent no.,"total luciferase, z-score","total luciferase, % of control","luciferase per cell, z-score",outcome
CYP11A1 (GeneID 1583),1,0.897,99.7,0.568,inactive
CYP11A1 (GeneID 1583),2,-1.1,60,0.0403,inactive
CYP11A1 (GeneID 1583),3,3.52,152,2.99,active
GSS (GeneID 2937),1,-0.00156,81.9,-0.0401,inactive
GSS (GeneID 2937),2,1.44,110,1.79,inactive
GSS (GeneID 2937),3,0.789,97.6,0.792,inactive
SRRM4 (GeneID 84530),1,-0.594,70.1,-0.851,inactive
SRRM4 (GeneID 84530),2,-0.508,71.8,-0.736,inactive
SRRM4 (GeneID 84530),3,0.222,86.3,-0.269,inactive
MMP9 (GeneID 4318),1,0.0525,82.9,0.189,inactive
MMP9 (GeneID 4318),2,0.647,94.8,0.707,inactive
MMP9 (GeneID 4318),3,-0.555,70.8,-0.635,inactive
LATS1 (GeneID 9113),1,-0.749,67,-0.754,inactive
LATS1 (GeneID 9113),2,0.162,85.1,-0.0571,inactive
LATS1 (GeneID 9113),3,-0.526,71.4,-0.531,inactive
ATXN7L2 (GeneID 127002),1,0.199,85.9,-0.107,inactive
ATXN7L2 (GeneID 127002),2,-1.07,60.6,-0.645,inactive
ATXN7L2 (GeneID 127002),3,1.65,115,1.49,inactive
MS4A13 (GeneID 503497),1,-1.16,58.9,-1.09,inactive
MS4A13 (GeneID 503497),2,1.47,111,0.75,inactive
MS4A13 (GeneID 503497),3,0.0187,82.3,0.544,inactive
CSN1S1 (GeneID 1446),1,4.79,177,3.12,active
CSN1S1 (GeneID 1446),2,1.13,104,0.75,inactive
CSN1S1 (GeneID 1446),3,0.825,98.3,0.901,inactive
ZNF578 (GeneID 147660),1,-0.533,71.3,-0.0181,inactive
ZNF578 (GeneID 147660),2,-0.64,69.1,-0.362,inactive
ZNF578 (GeneID 147660),3,2.19,125,2.16,inactive
CTSE (GeneID 1510),1,1.69,115,0.994,inactive
CTSE (GeneID 1510),2,4.12,164,3.03,active
CTSE (GeneID 1510),3,-0.215,77.6,-1.05,inactive
C16orf89 (GeneID 146556),1,2.82,138,2.15,inactive
C16orf89 (GeneID 146556),2,1.2,106,0.693,inactive
C16orf89 (GeneID 146556),3,0.195,85.8,0.257,inactive
SFTPB (GeneID 6439),1,1.71,116,0.869,inactive
SFTPB (GeneID 6439),2,0.32,88.2,0.645,inactive
SFTPB (GeneID 6439),3,1.05,103,0.356,inactive
GPATCH11P1 (GeneID 344709),1,2.2,126,2.76,inactive
GPATCH11P1 (GeneID 344709),2,-0.68,68.4,-0.531,inactive
GPATCH11P1 (GeneID 344709),3,-0.819,65.6,-0.95,inactive
SERHL2 (GeneID 253190),1,0.27,87.3,0.129,inactive
SERHL2 (GeneID 253190),2,4.39,169,3.15,active
SERHL2 (GeneID 253190),3,-0.776,66.4,-0.518,inactive
SLC26A6 (GeneID 65010),1,3.32,148,2.38,active
SLC26A6 (GeneID 65010),2,-0.238,77.2,-0.703,inactive
SLC26A6 (GeneID 65010),3,1.47,111,1.71,inactive
CSGALNACT2 (GeneID 55454),1,-0.35,74.9,-0.712,inactive
CSGALNACT2 (GeneID 55454),2,-0.392,74.1,-0.511,inactive
CSGALNACT2 (GeneID 55454),3,0.16,85.1,-0.0882,inactive
BBS5 (GeneID 129880),1,0.278,87.4,0.809,inactive
BBS5 (GeneID 129880),2,1.5,112,1.4,inactive
BBS5 (GeneID 129880),3,-0.343,75.1,-0.358,inactive
MYCBP (GeneID 26292),1,-0.351,74.9,-0.64,inactive
MYCBP (GeneID 26292),2,0.562,93.1,0.572,inactive
MYCBP (GeneID 26292),3,1.35,109,1.55,inactive
CLDN15 (GeneID 24146),1,0.492,91.7,0.0322,inactive
CLDN15 (GeneID 24146),2,3.9,160,2.88,active
CLDN15 (GeneID 24146),3,1.83,118,0.53,inactive

Just “total luciferase, z-score”, for 3 of the entries above:
MMP9 (GeneID 4318) #2	0.647
MMP9 (GeneID 4318) #3	-0.555
LATS1 (GeneID 9113) #1	-0.749
